# Results: PubChem BioAssay AID445 (National Center for Advancing Translational Sciences (NCATS), 2006)
# The list shows a part of the results. The main result of the screen is listed elsewhere. These columns were measured beside it and carry no call. The list favours compounds with an active or inconclusive main result. Words in brackets tell the shape of the fitted curve; partial curves, single points and poor fits give uncertain potencies.
# Experiment: IkB Signaling
# Conditions: ABC-DLBCL IkBa-CBG/CBR dual luciferase ratio (green luciferase fused to IkBa over red control in OCI-Ly3 lymphoma cells), 4 h; measured here: control luc red channel unless noted
# Summary of the method: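 Luminescence ratio of IκBα-fused green versus native red beetle luciferase in OCI-Ly3 cells, 4 h post-doxycycline with compound; red signal alone, scaled from basal (0%) to zero light (-100%), flagged nonspecific or cytotoxic effects.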
row,Compound,AC50
1,Cc1ccccc1-c1nc(CS(=O)(=O)CC(=O)Nc2cc(F)ccc2F)c(C)o1,"39.8 µM [falling, single point]"
2,Cc1nc2nc(NC(=O)C(C)(C)C)[nH]n2c(=O)c1Cc1ccccc1,"7.94 µM [rising, partial curve]"
3,CCN(CC)C(=O)CSc1nc2cc3c(cc2c(=O)n1CCCCCC(=O)NCCc1ccc(OC)c(OC)c1)OCO3,"39.8 µM [rising, partial curve, poor fit]"
4,COc1ccc(CNC(=O)c2ccc3c(c2)N(Cc2ccccc2F)C(=O)c2ccccc2S3(=O)=O)cc1,"12.6 µM [falling, partial curve]"
5,CCOc1ccc(NC(=O)c2c(NCc3sccc3C)sc3c2CCCCC3)cc1,"31.6 µM [falling, partial curve]"
6,COCCNC(=O)CCc1c(C)nc2c(c(C)nn2-c2ccc(C)cc2)c1C,"25.1 µM [falling, single point]"
7,CCCN(CCC)c1nc(-c2ccccc2F)nc2ccccc12,"25.1 µM [falling, partial curve]"
8,O=C(CSc1nc2c([nH]c3ccccc32)c(=O)n1-c1ccc(F)cc1)NC1CCCCC1,"20 µM [falling, single point]"
9,O=C(COc1ccc([N+](=O)[O-])cc1)Nc1cccc2cccnc12,"1.58 µM [rising, full curve]"
10,CCCOc1ccc(C(=O)N2CCN(c3ccc(NC(=O)CC)cc3Cl)CC2)cc1,"25.1 µM [falling, partial curve]"
11,COCCNC(=O)c1cccc(Nc2nc3ccccc3n3nnnc23)c1,"0.0158 µM [rising, full curve, poor fit]"
12,CC1CCc2c(sc(NC(=O)c3ccc(Cl)cc3Cl)c2C#N)C1 (centres undefined),"2 µM [falling, full curve]"
13,O=C1N(Cc2cccc(C(F)(F)F)c2)c2ccccc2S(=O)(=O)N1c1cccc(Cl)c1,"20 µM [falling, single point]"
14,Cc1c(Cl)cccc1N1C(N)=C(C#N)C(c2cc(CN3CCOCC3)cs2)C2=C1CCCC2=O (centres undefined),"15.8 µM [falling, partial curve]"
15,Cc1ccc(NC(=O)Cn2cnc3nc4c(cc3c2=O)CCCC4)cc1Cl,"3.98 µM [falling, partial curve, poor fit]"
16,CCOc1ccc(S(=O)(=O)c2cn(Cc3ccccc3)c3ccc(OCC)cc3c2=O)cc1,"7.94 µM [falling, partial curve]"
17,CCc1ccc(S(=O)(=O)Nc2cccc(-c3ccc(N4CCC(C)CC4)nn3)c2)s1,"2.51 µM [falling, full curve]"
18,CC(C)(C)OC(=O)N1CCC(c2c(C(=O)NCc3ccco3)cnn2-c2ccccc2)CC1,"25.1 µM [falling, partial curve]"
19,CCc1ccc(CNC(=O)c2cnc3sc(N4CCCCC4)nn3c2=O)cc1,"12.6 µM [rising, partial curve, poor fit]"
20,CCn1c(=O)cc(SCC(=O)NCc2ccccc2OC)c2ccccc21,"15.8 µM [falling, partial curve]"

# Reformatted with tabs: part of the list above
row	Compound	AC50
8	O=C(CSc1nc2c([nH]c3ccccc32)c(=O)n1-c1ccc(F)cc1)NC1CCCCC1	20 µM [falling, single point]
14	Cc1c(Cl)cccc1N1C(N)=C(C#N)C(c2cc(CN3CCOCC3)cs2)C2=C1CCCC2=O (centres undefined)	15.8 µM [falling, partial curve]

# (listing goes on)

row,Compound,AC50
1,Nc1cc(C(=O)O)ccc1Nc1ccccc1,"6.31 µM [falling, partial curve]"
2,Cc1cccc(C(=O)NC(=O)Nc2ccc(-c3cc(C(F)(F)F)nn3-c3ccccc3)cc2)c1,"0.398 µM [falling, full curve]"
3,O=C(Cn1cc(C(=O)c2ccco2)c2ccccc21)Nc1ccccc1Cl,"0.251 µM [falling, full curve, poor fit]"
4,CCOC(=O)c1sc2ccccc2c1S(=O)(=O)N1CCN(c2cccc(C)c2C)CC1,"15.8 µM [falling, partial curve]"
5,COc1cc(NC(=O)C2CCCN(S(=O)(=O)c3ccc4c(c3)CCCC(=O)N4)C2)cc(OC)c1 (centres undefined),"25.1 µM [falling, single point]"
6,COc1cc(Cl)c(C)cc1NC(=O)Cn1ncc2c(=O)oc3ccccc3c21,"25.1 µM [rising, partial curve]"
7,CCCCOc1ccc(C2C3CN(C(=O)OCC)CC=C3C(C#N)=C(N)C2(C#N)C#N)cc1OC (centres undefined),"5.01 µM [falling, full curve, poor fit]"
8,CCC(C)n1c(=O)c(C(=O)Nc2ccccc2S(N)(=O)=O)c(O)c2ccccc21 (centres undefined),"7.94 µM [falling, partial curve]"
9,Cc1nn2c(C)c(C(=O)N3CCN(c4ccccc4)CC3)cnc2c1-c1ccccc1,"25.1 µM [falling, single point]"
10,Cc1ccc(CCNC(=O)c2cc3c(=O)oc4ccccc4c3s2)cc1,"0.00794 µM [falling, full curve, poor fit]"
11,COc1cc(OC)cc(C(=O)Nc2ccc3oc(-c4ccccc4C)nc3c2)c1,"7.94 µM [falling, full curve]"
12,CC(C)CNc1nc(NC(C)(C)C)nc(Oc2ccc(=O)n(-c3ccccc3)n2)n1,"31.6 µM [falling, single point]"
13,Cc1ccc(N(C)C(=O)Cn2cnc3onc(-c4ccc(F)cc4)c3c2=O)cc1C,"20 µM [falling, single point]"
14,COc1ccc(CCNC(=O)CCCn2c(=O)c3ccccc3n(Cc3ccc(C)cc3)c2=O)cc1OC,"3.98 µM [rising, single point]"
15,CN1CCN(C(=O)CSc2nc(-c3cccs3)cc(-c3cccs3)c2C#N)CC1,"15.8 µM [falling, partial curve]"
16,CC(C)OCCCNC(=O)CCCn1c(=O)[nH]c2ccsc2c1=O,"0.0251 µM [falling, partial curve, poor fit]"
17,Cc1cc(C)cc(Nc2cc(C(=O)NCCCN(Cc3ccccc3)C(C)C)c3ccccc3n2)c1,"7.94 µM [falling, full curve]"
18,CCOc1ccc(CNC(=O)c2cc(=O)[nH]c3ccc(S(=O)(=O)N4CCCCC4)cc23)cc1,"0.316 µM [rising, full curve]"
19,CCN(Cc1ccccc1)C(=O)Cn1c(=O)n(-c2ccc(F)c(Cl)c2)c(=O)c2sc3ccccc3c21,"10 µM [falling, partial curve]"
